Test results from PubChem BioAssay AID2685 (National Center for Advancing Translational Sciences (NCATS), 2010).
This is one part of the list. Further columns of the screen follow, without active or inactive calls. The list favours compounds with an active or inconclusive main result. Words in brackets tell the shape of the fitted curve; partial curves, single points and poor fits give uncertain potencies.

Assay: qHTS Assay for Lipid Storage Modulators in Drosophila S3 Cells;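 for cell number change: cells counted by Cell Tracker Red CMTPX staining in the red channel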
Conditions: BODIPY lipid droplet fluorescence, 18-24 h; for cell number change: measured here: cell count max response, cells fed with added oleic acid
Outline: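 Drosophila S3 cells loaded with oleic acid (400 uM, as added) and compounds at several concentrations; lipid droplets imaged by 488-nm laser-scanning cytometry, 500–530 nm intensity and object ratio to cell channel. Percent activity normalized to 20 uM Triacsin C.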

[1] = measured here: cell number channel AC50, cells fed with added oleic acid
[2] = measured here: lipid fluorescence (Fed channel) AC50, cells fed with added oleic acid

## Cn1c(SCC2CCCCC2)nnc1-c1ccncc1
  cell number change: 32.5%
[1]
  AC50: 29.1 µM [rising, single point]

## Cc1cccc(NC(=O)c2nc(-c3ccccc3)n(-c3ccccc3)n2)c1C
  cell number change: 16.7%
[1]
  AC50: 6.51 µM [rising, single point]
[2]
  AC50: 0.651 µM [rising, full curve]

## CC(C)Cn1c(N)c(C(=O)COC(=O)c2cc(C(F)(F)F)nc3c(C(F)(F)F)cccc23)c(=O)n(C)c1=O
  cell number change: 19%
[2]
  AC50: 18.4 µM [rising, partial curve]

## CN1/C(=C/c2cccc[n+]2C)Sc2ccccc21
  cell number change: -27%
[2]
  AC50: 29.1 µM [falling, single point]

## C#CCN1C(=O)C(O)(c2c(C)[nH]c3ccccc23)c2ccccc21 (stereo not given)
  cell number change: 1.45%
[2]
  AC50: 5.8 µM [rising, full curve, poor fit]

## O=C(C1CCCN(Cc2cc(Br)ccc2O)C1)N1CCCCC1 (stereo not given)
  cell number change: -7.21%
[2]
  AC50: 0.103 µM [falling, full curve, poor fit]

## CCOCCCNC(=O)C(c1ccc(C)cc1)N1CCOCC1 (stereo not given)
  cell number change: 2.35%
[2]
  AC50: 0.13 µM [falling, full curve, poor fit]

## N=C1/C(=C/c2cccn2Cc2ccc(F)cc2)C(=O)N=C2SC=CN12
  cell number change: 0.113%
[2]
  AC50: 1.84 µM [rising, partial curve, poor fit]

## CCn1c(COc2cccc3ccccc23)nnc1SCC(N)=O
  cell number change: -152%
[1]
  AC50: 23.1 µM [falling, partial curve]
[2]
  AC50: 23.1 µM [falling, partial curve]

## COc1cc(C2SCC(=O)N2Cc2ccccc2)ccc1O (stereo not given)
[1]
  AC50: 0.651 µM [rising, partial curve, poor fit]

## O=S(=O)(/N=C(/NS(=O)(=O)c1ccccc1)c1ccccc1)c1ccccc1
  cell number change: -13.7%
[2]
  AC50: 0.461 µM [falling, full curve]

## C/C(=N/N=C(/N)SCc1ccccc1)C(C)(C)C
  cell number change: 19.6%
[2]
  AC50: 7.31 µM [rising, partial curve]

## O=C1C(Cl)=C(N2CCCC2)C(=O)N1c1ccc(F)cc1
  cell number change: -13.6%
[2]
  AC50: 7.31 µM [falling, partial curve, poor fit]

## CCCCn1c(SCC(=O)Nc2nccs2)nc2ccccc2c1=O
  cell number change: 18.1%
[2]
  AC50: 18.4 µM [rising, single point]

## CN1CCCN(C(=O)c2c(F)cccc2Cl)CC1
[2]
  AC50: 0.651 µM [falling, partial curve, poor fit]

## COC(=O)C1=C(CSCc2ccco2)NC(=O)NC1c1cc(C)ccc1C (stereo not given)
  cell number change: -3.12%
[2]
  AC50: 6.51 µM [rising, single point]

## Cc1ccc(CN2C(=O)C(CC(C)C)Nc3ncnc(N4CCN(c5ccccn5)CC4)c32)cc1 (stereo not given)
  cell number change: 19.5%

## COc1ccc(OC)c(S(=O)(=O)Nc2ccccc2C)c1
  cell number change: 14.5%
[2]
  AC50: 3.26 µM [rising, single point]

## CCOc1cccc2sc(N(CCN(C)C)C(=O)c3ccc4c(c3)OCCO4)nc12
  cell number change: 3.92%

## C/C(=N\NC(=O)c1ccc(N2CCCC2=O)cc1)c1ccccc1
  cell number change: 1.9%

## Cc1onc(-c2ccc(Cl)cc2)c1-c1ccnn1S(=O)(=O)c1ccc(Cl)cc1
  cell number change: 30.2%
[1]
  AC50: 0.146 µM [rising, full curve, poor fit]

## O=C(Nc1cc(SCC(O)CO)cc([N+](=O)[O-])c1)c1ccc(-n2cnnn2)cc1 (stereo not given)
  cell number change: 33.6%
[1]
  AC50: 29.1 µM [rising, single point]

## C/C(CC(=O)NC1CCCC1)=N\NC(=O)c1ccc([N+](=O)[O-])c(Cl)c1
  cell number change: -1.42%
[2]
  AC50: 0.651 µM [rising, full curve, poor fit]

## O=C(Nc1cc(Cl)ccc1N1CCCC1)C1=COCCO1
  cell number change: 16.3%

## COc1ccc(Cl)cc1N1CCN(CCNC(=O)Nc2ccccc2C)CC1
[2]
  AC50: 6.51 µM [rising, single point]

## Cc1ccc(NC(=O)Nc2ccccc2C(=O)NCc2ccccc2)cc1
  cell number change: 20%
[1]
  AC50: 3.66 µM [rising, single point]
[2]
  AC50: 2.91 µM [rising, full curve]

## COc1ccc(-c2nc(C#N)c(NCCCN3CCOCC3)o2)cc1
[2]
  AC50: 6.51 µM [rising, single point]

## COc1cc2nc(SCC(=O)NCCc3ccccc3)n(Cc3ccco3)c(=O)c2cc1OC
  cell number change: -18.1%
[2]
  AC50: 2.06 µM [rising, full curve, poor fit]

## CC[n+]1c(/C=C/Nc2ccccc2)oc2ccc(OC)cc21
  cell number change: 8.89%
[2]
  AC50: 7.31 µM [falling, partial curve, poor fit]

## CCOC(=O)c1ccc(CNCc2ccc(Br)cc2)cc1
  cell number change: -3.2%
[2]
  AC50: 16.4 µM [rising, partial curve]

## COc1ccc(NC(=O)CN(C)S(=O)(=O)c2ccc3c(c2)n(C)c(=O)c(=O)n3C)cc1
  cell number change: -5.6%
[1]
  AC50: 6.51 µM [falling, single point]
[2]
  AC50: 6.51 µM [rising, single point]

## Cc1nn(CC(=O)N(C)Cc2ccc(F)cc2)c(C)c1[N+](=O)[O-]
  cell number change: 6.46%

## Cc1nn(-c2ccccc2)c(C)c1NC(=O)Cc1cccs1
  cell number change: 5.62%
[1]
  AC50: 0.92 µM [rising, full curve, poor fit]
[2]
  AC50: 1.3 µM [rising, partial curve]

## Cc1nc2nc(SCC(=O)NCc3ccco3)nn2c(C)c1Cc1c(F)cccc1Cl
  cell number change: 10.3%

## CC1(C)C(=O)C2(CCCCC2)C(=O)OC1c1ccc(O)cc1 (stereo not given)
  cell number change: -33%
[1]
  AC50: 29.1 µM [falling, single point]
[2]
  AC50: 7.31 µM [falling, single point]

## Nc1ccc2nn(-c3cc([N+](=O)[O-])ccc3O)nc2c1
[2]
  AC50: 0.0731 µM [falling, full curve, poor fit]

## O=C(COC(=O)c1ccc(S(=O)(=O)N2CCOCC2)cc1)NC1CCCCCCC1
  cell number change: 3.38%

## COc1cccc(NC(=O)CN(C)C(=O)c2cccc(S(=O)(=O)N3CCN(c4ccc(F)cc4)CC3)c2)c1
  cell number change: -29.6%
[2]
  AC50: 0.00461 µM [falling, full curve, poor fit]

## COC(=O)c1ccccc1S(=O)(=O)N(Cc1ccco1)Cc1cc2cc(OC)ccc2[nH]c1=O
  cell number change: 6.18%
[2]
  AC50: 6.51 µM [rising, single point]

## COc1ccc([C@@H]2C[C@H](c3ccccc3)Oc3cc(OC)c(OC)c(OC)c32)cc1
[2]
  AC50: 1.84 µM [falling, full curve]

## Cc1cc(C(=O)NC2CC(C)(C)Cc3c2cnn3-c2ccc(F)cc2)no1 (stereo not given)
  cell number change: 7.33%

## CN(CC(=O)NC1CCN(Cc2ccccc2)CC1)S(=O)(=O)c1ccc(Cl)cc1
  cell number change: -40.7%
[1]
  AC50: 29.1 µM [falling, single point]

## COc1cc(C(=O)NNC(=O)c2ccc(NC(C)=O)cc2)cc(OC)c1OC
  cell number change: -1.79%
[2]
  AC50: 0.651 µM [falling, single point]

## CCOc1ccc(C(=O)NCC(=O)OCCN2C(=O)c3ccccc3C2=O)cc1OCC
  cell number change: 27.7%
[2]
  AC50: 0.291 µM [rising, full curve]

## O=C(Oc1ccccc1)c1ccc(NC(=O)c2ccco2)cc1
  cell number change: 16.9%
[2]
  AC50: 16.4 µM [rising, partial curve, poor fit]

## COc1ccc(C)c2sc(N(CCN(C)C)C(=O)c3cccc(N4C(=O)CCC4=O)c3)nc12
  cell number change: -16.4%
[2]
  AC50: 29.1 µM [falling, single point]

## COc1ccc(CCN(Cc2nc(-c3ccccc3)no2)Cc2nc(-c3ccccc3)no2)cc1OC
  cell number change: 11.2%
[2]
  AC50: 2.31 µM [rising, partial curve]

## O=C(CN1C(=O)CSc2ccc(S(=O)(=O)N3CCOCC3)cc21)NCc1ccc(Cl)cc1
  cell number change: 26.4%
[2]
  AC50: 29.1 µM [rising, single point]

## CCOC(=O)c1cnc2c(-c3ccccc3)c(-c3ccccc3)nn2c1C
  cell number change: 11.3%
[2]
  AC50: 20.6 µM [rising, single point]

## CC(C)(C)S(=O)(=O)c1cnc(N2CCCC2)nc1N
[2]
  AC50: 0.291 µM [falling, full curve, poor fit]

## CC(C)CN(C(=O)CN1CCN(S(=O)(=O)c2ccccc2)CC1)c1c(N)n(CC(C)C)c(=O)[nH]c1=O
  cell number change: -26.8%
[2]
  AC50: 4.11 µM [falling, full curve, poor fit]

## Cc1ccc(C(=O)N2CC(C)OC(C)C2)cc1[N+](=O)[O-] (stereo not given)
  cell number change: -40.9%
[1]
  AC50: 14.6 µM [falling, partial curve, poor fit]
[2]
  AC50: 14.6 µM [falling, partial curve, poor fit]

## Fc1cc2nccnc2cc1N1CCSCC1
  cell number change: -4.15%
[1]
  AC50: 0.82 µM [falling, full curve]
[2]
  AC50: 0.92 µM [falling, full curve]

## CC(C)C(NC(=O)c1ccc(F)cc1)C(=O)OCC(=O)N1CC(=O)Nc2ccccc21 (stereo not given)
  cell number change: -54.1%
[1]
  AC50: 4.61 µM [falling, full curve]

## COc1ccc(C(=O)NCC(=O)OCC(=O)NCCC2=CCCCC2)cc1
  cell number change: -20.8%
[2]
  AC50: 16.4 µM [falling, partial curve]

## CC(=O)OC1CC(C)N(C(=O)c2ccccc2)c2ccc(C)cc21 (stereo not given)
  cell number change: -33.8%
[1]
  AC50: 32.6 µM [falling, single point]
[2]
  AC50: 29.1 µM [falling, partial curve, poor fit]

## Cc1cc(C(=O)Nc2cccc(NC(=O)c3ccco3)c2)ccc1[N+](=O)[O-]
[2]
  AC50: 2.06 µM [falling, partial curve]

## CCn1c(SCC(=O)NNC(=O)c2ccc(C)cc2)nnc1-c1ccco1
  cell number change: -27%
[1]
  AC50: 2.06 µM [falling, partial curve, poor fit]
[2]
  AC50: 3.26 µM [falling, partial curve, poor fit]
